Measurements reported in article PMC4364537.
Results are given in words; binding and its absence hold for the method and conditions named.

Target: choline kinase LicA from Streptococcus pneumoniae R6 (Streptococcus pneumoniae R6)
Assay: SEC; gel-filtration chromatography of purified LicA, with a standard curve (S1 Fig.); both purified

binding: no binding
Substance: choline kinase LicA from Streptococcus pneumoniae R6 (from UniProt A0ACD7PS89 1-289) (enzyme)
